This passage reports log2 fold change results from the supplement of paper PMC10849652.

By UniProt entry, the sequences of proteins in these tests, tags left out. Where a name states a change or a piece, a line headed by the entry shows the natural chain unless it says otherwise.
UniProt Q96EN9: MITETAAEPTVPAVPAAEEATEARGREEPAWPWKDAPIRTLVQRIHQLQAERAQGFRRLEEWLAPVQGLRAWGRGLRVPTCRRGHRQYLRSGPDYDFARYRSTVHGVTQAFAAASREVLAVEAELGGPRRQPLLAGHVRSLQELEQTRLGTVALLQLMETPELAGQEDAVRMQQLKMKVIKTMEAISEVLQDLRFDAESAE
UniProt P48380: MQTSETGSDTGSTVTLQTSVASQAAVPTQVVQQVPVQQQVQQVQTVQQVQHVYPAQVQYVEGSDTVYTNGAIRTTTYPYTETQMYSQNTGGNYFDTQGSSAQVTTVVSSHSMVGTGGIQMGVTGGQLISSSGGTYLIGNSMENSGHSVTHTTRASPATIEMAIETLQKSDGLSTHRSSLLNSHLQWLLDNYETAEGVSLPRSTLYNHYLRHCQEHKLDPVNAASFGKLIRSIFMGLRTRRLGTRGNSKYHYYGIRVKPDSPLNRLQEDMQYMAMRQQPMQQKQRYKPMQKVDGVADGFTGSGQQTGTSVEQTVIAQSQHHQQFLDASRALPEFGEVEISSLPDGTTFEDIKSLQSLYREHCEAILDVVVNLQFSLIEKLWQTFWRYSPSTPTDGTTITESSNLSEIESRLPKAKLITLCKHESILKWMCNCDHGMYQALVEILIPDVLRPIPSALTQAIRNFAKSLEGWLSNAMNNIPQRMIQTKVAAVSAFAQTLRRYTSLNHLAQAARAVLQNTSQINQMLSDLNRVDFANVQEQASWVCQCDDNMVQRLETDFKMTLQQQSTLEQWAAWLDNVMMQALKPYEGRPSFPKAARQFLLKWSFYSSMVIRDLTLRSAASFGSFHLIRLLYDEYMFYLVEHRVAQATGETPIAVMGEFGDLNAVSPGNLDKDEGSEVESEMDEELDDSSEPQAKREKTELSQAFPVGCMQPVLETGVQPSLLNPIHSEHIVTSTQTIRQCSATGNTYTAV
UniProt Q8IUH3: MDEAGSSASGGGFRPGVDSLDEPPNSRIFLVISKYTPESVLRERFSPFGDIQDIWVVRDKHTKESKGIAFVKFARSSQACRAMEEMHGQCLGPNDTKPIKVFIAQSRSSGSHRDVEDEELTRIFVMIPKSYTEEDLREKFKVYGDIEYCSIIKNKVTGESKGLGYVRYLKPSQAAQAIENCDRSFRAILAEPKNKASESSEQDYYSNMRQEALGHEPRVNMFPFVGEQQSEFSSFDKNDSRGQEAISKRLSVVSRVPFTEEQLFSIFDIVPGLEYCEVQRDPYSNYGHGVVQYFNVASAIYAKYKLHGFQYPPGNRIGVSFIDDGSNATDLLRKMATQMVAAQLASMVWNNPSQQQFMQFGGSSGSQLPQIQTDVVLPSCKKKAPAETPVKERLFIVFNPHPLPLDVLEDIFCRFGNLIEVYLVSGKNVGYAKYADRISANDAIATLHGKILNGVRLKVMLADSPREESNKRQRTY
UniProt Q6NUK4: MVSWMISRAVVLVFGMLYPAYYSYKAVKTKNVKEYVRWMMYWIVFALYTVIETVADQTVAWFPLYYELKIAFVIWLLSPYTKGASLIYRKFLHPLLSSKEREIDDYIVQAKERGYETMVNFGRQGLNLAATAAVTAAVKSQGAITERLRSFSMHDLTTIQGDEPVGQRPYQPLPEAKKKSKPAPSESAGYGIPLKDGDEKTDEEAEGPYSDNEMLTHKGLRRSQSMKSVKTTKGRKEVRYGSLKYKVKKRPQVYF
UniProt Q08999: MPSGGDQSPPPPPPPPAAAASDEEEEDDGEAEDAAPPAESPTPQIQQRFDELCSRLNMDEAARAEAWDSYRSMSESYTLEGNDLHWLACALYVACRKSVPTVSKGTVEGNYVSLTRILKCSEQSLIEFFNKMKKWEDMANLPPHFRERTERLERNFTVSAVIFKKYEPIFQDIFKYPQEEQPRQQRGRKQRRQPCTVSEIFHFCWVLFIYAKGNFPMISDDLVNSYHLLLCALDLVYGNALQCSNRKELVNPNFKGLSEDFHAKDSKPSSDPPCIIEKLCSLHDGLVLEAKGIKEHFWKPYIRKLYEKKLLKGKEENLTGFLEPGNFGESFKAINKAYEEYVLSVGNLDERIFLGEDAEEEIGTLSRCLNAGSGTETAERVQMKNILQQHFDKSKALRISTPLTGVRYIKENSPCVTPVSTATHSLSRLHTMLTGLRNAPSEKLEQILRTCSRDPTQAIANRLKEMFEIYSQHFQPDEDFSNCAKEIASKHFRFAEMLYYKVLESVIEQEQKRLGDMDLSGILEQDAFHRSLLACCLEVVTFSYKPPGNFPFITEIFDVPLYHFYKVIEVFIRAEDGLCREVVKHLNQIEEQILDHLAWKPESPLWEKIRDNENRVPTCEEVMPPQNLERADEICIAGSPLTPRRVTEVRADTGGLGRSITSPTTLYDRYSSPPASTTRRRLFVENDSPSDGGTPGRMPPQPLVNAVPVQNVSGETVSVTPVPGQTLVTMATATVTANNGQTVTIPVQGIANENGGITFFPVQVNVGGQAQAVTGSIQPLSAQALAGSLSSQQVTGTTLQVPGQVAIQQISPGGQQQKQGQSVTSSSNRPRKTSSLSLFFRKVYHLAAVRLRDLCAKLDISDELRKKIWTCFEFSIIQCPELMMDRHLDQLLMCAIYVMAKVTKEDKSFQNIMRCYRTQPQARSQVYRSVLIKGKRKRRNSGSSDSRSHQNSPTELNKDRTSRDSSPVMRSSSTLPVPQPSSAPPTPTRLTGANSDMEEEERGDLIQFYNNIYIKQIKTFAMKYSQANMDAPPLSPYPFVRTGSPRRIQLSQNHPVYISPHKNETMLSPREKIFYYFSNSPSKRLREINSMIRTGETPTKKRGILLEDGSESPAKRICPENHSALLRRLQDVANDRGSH
UniProt Q9HCJ3: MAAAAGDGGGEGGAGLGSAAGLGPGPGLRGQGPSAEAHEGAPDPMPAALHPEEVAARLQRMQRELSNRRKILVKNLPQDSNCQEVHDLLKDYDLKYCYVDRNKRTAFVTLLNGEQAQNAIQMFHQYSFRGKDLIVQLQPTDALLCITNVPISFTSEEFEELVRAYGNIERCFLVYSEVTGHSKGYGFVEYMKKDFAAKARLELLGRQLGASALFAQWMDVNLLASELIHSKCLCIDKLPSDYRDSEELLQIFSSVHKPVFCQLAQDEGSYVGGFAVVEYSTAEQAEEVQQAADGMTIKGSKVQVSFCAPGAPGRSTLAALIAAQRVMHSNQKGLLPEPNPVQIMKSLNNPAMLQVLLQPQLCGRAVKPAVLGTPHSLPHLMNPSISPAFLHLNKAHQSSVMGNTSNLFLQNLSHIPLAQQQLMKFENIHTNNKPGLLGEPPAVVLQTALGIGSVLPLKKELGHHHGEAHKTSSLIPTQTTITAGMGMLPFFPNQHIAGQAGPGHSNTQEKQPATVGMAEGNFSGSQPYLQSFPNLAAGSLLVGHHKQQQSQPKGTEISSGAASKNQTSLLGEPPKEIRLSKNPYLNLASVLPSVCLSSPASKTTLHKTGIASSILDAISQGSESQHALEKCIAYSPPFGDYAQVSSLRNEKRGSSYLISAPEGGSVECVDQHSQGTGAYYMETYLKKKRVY
UniProt Q9H4X1: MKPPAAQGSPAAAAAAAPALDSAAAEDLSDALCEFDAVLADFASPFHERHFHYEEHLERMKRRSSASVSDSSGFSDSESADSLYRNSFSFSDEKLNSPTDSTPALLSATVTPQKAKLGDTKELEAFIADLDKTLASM
UniProt Q86WH2: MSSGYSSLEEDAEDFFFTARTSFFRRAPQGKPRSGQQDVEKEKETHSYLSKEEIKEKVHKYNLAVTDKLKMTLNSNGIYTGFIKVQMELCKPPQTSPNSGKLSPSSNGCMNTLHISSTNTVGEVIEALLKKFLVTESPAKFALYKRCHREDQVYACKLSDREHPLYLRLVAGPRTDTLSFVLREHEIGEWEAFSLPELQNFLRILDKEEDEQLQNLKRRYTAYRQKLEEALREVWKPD
UniProt Q8NDN9: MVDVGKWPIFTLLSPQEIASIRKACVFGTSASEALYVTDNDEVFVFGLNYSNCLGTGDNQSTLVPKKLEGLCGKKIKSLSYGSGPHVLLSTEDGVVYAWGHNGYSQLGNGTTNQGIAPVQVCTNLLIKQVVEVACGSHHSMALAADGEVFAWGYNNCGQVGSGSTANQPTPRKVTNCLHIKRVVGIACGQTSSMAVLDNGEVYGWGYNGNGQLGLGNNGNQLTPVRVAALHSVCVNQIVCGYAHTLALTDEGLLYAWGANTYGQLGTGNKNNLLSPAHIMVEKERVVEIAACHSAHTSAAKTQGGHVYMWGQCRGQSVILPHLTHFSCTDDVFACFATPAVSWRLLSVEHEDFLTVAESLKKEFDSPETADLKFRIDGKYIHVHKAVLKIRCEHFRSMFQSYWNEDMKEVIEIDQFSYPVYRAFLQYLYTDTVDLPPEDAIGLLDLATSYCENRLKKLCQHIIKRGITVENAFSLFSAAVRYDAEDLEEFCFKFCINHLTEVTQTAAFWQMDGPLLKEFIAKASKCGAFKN
UniProt Q13127: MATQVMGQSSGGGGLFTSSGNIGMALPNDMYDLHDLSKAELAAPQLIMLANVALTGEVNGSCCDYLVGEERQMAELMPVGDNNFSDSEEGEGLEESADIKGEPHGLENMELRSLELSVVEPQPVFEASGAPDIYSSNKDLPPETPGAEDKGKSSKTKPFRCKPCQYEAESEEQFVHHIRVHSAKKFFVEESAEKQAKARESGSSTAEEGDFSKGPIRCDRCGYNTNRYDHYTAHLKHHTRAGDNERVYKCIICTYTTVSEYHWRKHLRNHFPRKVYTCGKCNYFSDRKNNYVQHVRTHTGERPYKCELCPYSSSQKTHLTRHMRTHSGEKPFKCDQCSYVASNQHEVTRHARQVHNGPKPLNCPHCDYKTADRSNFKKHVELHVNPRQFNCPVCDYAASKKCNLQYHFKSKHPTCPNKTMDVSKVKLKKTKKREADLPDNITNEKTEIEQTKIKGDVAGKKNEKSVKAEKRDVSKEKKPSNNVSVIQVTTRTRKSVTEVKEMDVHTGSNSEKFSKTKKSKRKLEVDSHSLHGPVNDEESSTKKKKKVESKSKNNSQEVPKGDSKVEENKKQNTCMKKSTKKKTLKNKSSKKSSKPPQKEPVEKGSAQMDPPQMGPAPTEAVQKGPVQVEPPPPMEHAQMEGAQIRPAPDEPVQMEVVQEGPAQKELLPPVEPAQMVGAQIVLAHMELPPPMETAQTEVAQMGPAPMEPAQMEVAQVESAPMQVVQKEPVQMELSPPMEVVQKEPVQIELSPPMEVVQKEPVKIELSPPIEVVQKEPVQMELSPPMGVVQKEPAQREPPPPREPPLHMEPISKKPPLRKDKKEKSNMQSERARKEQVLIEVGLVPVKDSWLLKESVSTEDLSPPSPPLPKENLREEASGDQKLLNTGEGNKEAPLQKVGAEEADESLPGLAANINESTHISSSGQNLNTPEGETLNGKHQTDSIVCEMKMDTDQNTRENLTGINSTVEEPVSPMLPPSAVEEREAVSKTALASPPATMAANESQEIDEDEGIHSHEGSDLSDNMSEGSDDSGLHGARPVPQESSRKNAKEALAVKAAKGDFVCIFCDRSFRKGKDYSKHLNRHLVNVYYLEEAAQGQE
UniProt O15211: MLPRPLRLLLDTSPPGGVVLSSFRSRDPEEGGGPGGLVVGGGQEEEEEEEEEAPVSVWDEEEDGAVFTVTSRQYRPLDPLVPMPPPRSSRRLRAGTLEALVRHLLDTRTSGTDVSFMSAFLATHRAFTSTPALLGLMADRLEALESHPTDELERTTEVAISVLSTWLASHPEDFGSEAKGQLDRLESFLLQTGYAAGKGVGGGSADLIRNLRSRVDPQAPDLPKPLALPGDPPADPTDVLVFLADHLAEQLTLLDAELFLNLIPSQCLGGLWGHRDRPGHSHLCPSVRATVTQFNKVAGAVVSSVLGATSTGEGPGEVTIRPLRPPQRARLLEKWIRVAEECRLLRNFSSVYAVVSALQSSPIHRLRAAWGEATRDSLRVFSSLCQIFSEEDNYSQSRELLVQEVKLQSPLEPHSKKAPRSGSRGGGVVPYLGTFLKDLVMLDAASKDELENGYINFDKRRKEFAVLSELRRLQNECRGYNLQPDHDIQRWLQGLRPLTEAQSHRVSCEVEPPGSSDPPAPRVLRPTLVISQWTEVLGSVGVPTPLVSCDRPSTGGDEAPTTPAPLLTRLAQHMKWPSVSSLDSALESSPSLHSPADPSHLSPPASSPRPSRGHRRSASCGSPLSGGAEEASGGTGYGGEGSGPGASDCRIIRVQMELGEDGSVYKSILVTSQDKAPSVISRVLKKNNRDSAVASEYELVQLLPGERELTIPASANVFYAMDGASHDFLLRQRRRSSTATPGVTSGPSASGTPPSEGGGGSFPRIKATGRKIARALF
UniProt Q96H35: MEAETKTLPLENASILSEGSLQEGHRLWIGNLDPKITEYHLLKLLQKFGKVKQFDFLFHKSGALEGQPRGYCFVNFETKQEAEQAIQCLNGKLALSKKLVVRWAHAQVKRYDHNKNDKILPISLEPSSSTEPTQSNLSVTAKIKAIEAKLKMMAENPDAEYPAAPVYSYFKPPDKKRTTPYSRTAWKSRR

Assay in all cases: log2 fold change, soluble protein after heating vs DMSO (PISA); higher = thermal stabilisation; K562 lysate, 10 uM; active = over 0.2 and 3.5 SD of the protein, either way, in both replicates (recomputed)
Compound in experiment [1]: Cc1sc2c(c1C)C(c1ccc(Cl)cc1)=N[C@@H](CC(=O)OC(C)(C)C)c1nnc(C)n1-2
Put shortly: (§1)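 Values give the log-two fold change in thermal stability against solvent controls, from duplicates. Crude K562 extract at 1 mg/mL protein, made by dounce homogenisation in PBS pH 7.4 with 1 mM MgCl2, was treated with 10 μM compound for 30 min. After 3 min heating across 48°C-58°C, aliquots were pooled, adjusted to 0.5% NP-40 at 4°C and centrifuged at 21,000xg for 90 min. The supernatant was measured by TMTpro 16plex LC-MS/MS with channel sums equalised.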

Compound in experiment [2]: c1ccc([C@@H]2C[C@H]2NC2CCNCC2)cc1
Put shortly:
as §1

Compound in experiment [3]: C1=CC=C(C=C1)[C@H](COC2=CC3=C(C=C2)NC(=O)N3)NC(=O)C4=CC=CN(C4=O)CC5=CC(=C(C=C5)F)F
Summed up:
as §1

Compound in experiment [4]: CC1=C(SC2=C1C(=N[C@H](C3=NN=C(N32)C)CC(=O)N)C4=CC=C(C=C4)Cl)C
Put shortly: as §1

Compound in experiment [5]: CC1=C2C(=CC=C1)N=C(N(C2=O)C3=CC=CC=C3C)CN4C=NC5=C(N=CN=C54)N
Put shortly:
as §1

The list shows a part of the results.

For the target REX1BD (UniProt Q96EN9), the log2 fold change in experiment [1] is inactive: -0.046; in experiment [2] it was inactive: 0.092.

For the target RFX3 (UniProt P48380), the log2 fold change in experiment [3] was inactive: -0.054; in experiment [4], inactive: 0.182; in experiment [1], inactive: -0.043; in experiment [2] it was inactive: -0.013.

In the case of RBMXL1 (UniProt Q96E39), the log2 fold change in experiment [5] was inactive: 0.071; in experiment [1], inactive: -0.182.

Regarding RBM45 (UniProt Q8IUH3), the log2 fold change in experiment [2] is inactive: -0.026.

As to REEP3 (UniProt Q6NUK4), the log2 fold change was inactive: -0.003 in experiment [3], inactive: -0.019 in experiment [4], inactive: 0.07 in experiment [5] and inactive: -0.061 in experiment [2].

Consider RBL2 (UniProt Q08999), for which the log2 fold change is inactive: 0.052 in experiment [3], inactive: -0.059 in experiment [4], inactive: -0.032 in experiment [1] and inactive: 0.048 in experiment [2].

On to RAVER2 (UniProt Q9HCJ3), for which the log2 fold change in experiment [1] is inactive: 0.048; in experiment [2], inactive: -0.147.

RBBP4 isoform 4 (UniProt Q09028): the log2 fold change in experiment [2] was inactive: 0.221.

For RGCC (UniProt Q9H4X1), the log2 fold change in experiment [5] was inactive: 0.023; in experiment [2], inactive: 0.027.

Turning to RASSF3 (UniProt Q86WH2), the log2 fold change in experiment [2] is inactive: -0.016.

Turning to RCBTB1 (UniProt Q8NDN9), in experiment [2], the log2 fold change is inactive: 0.307.

On to REST (UniProt Q13127), for which the figures for the log2 fold change in experiment [5] and in experiment [1] were inactive: -0.165 and inactive: 0.039, respectively.

With RGL2 (UniProt O15211), the log2 fold change in experiment [1] is inactive: 0.009; in experiment [2], inactive: 0.024.

Turning to RBM18 (UniProt Q96H35), the log2 fold change in experiment [5] is inactive: -0.026; in experiment [2], inactive: -0.027.

For RBP4 (UniProt P02753), the results for the log2 fold change in experiment [3], in experiment [4] and in experiment [2] were inactive: 0.105, inactive: -0.126 and inactive: 0.007, respectively.

Turning to RBM47, the results for the log2 fold change in experiment [5], in experiment [1] and in experiment [2] were inactive: 0.01, inactive: -0.008 and inactive: -0.175, respectively.
